Data: US20250082624A1, “METHODS OF TREATING COGNITIVE IMPAIRMENT” (NeuroTherapia, Inc., priority 2023, published 2025)
“And” between values parts separate entries of the source, which are not always exact repeats. Identical values can stand only once. “Also recorded” adds a separate entry of the source. At least one read-out could not be matched to a standard name with certainty.

Test: Phase 1b MAD plasma pharmacokinetics, non-compartmental analysis
Type: in vivo, human
Conditions: for Vd/F: individual subjects
From the text: Methods: All study procedures were approved by the IRB, and informed consent was obtained. Three cohorts of volunteers 45-80 years of age with well-controlled comorbidities (NOAD) and one cohort of AD patients diagnosed with cognitive impairment consistent with prodromal AD per International Working Group criteria or mild AD per National Institute on Aging—Alzheimer's Association criteria (n=6 active, 2 placebo per cohort) were enrolled. Participants were admitted to the study site for the duration of the dosing and returned 7-12 days after the last dose for a safety visit. Participants received NTRX-07 (10, 30, or 90 mg) or a placebo in a double-blinded randomization orally once daily for seven days. Subjects were assessed for changes in vital signs, including maneuvers to induce lightheadedness, electrocardiograms, 24-hour electroencephalograms (EEG), and safety laboratory studies. The second cohort returned and received a single repeat dose after a standard high-fat meal. The AD cohort also underwent cognitive testing and had blood samples for biomarkers drawn. Subjects had PK sampling done after the first and final dose of the study drug. An independent safety review committee conducted a blinded safety review of adverse events and plasma levels between each cohort.
All subjects had PK sampling done after the first and final dose of the study drug.
(§1) Raw bioanalytical data were received from Nuvisan following analysis of plasma samples from each of four cohorts. PK parameters were calculated by noncompartmental analysis using standard equations. Specifically, area under the plasma concentration versus time curve (AUC) was calculated using the trapezoid rule. Maximal plasma concentration (Cmax) and time of maximal plasma concentration (Tmax) were taken directly from the data. Clearance divided by bioavailability (Cl/F) was calculated as the dose divided by the AUC. Apparent volume of distribution over bioavailability (Vd/F) was calculated as dose divided by Cmax.
With oral administration of the dose every 24 hours for 7 days, blood samples were taken over a 24-hour interval on Days 1 and 7 and before and after dosing on Day 3.
as §1, with “on Oct. 27, 2022. […]” for “following analysis of plasma samples from each of four cohorts. PK parameters were calculated by noncompartmental analysis using standard equations.”
as §1, with “on Nov. 24, 2022. […]” for “following analysis of plasma samples from each of four cohorts. PK parameters were calculated by noncompartmental analysis using standard equations.”
as §1, with “on Dec. 19, 2022. […]” for “following analysis of plasma samples from each of four cohorts. PK parameters were calculated by noncompartmental analysis using standard equations.”
Raw bioanalytical data were received from Nuvisan on Jun. 30, 2023. […] Specifically, area under the plasma concentration versus time curve (AUC) was calculated using the trapezoid rule. Maximal plasma concentration (Cmax) and time of maximal plasma concentration (Tmax) were taken directly from the data. […]

CC1(Cc2ccccc2)COc2cc(C(=O)N3CCCCC3)ccc21 (stereo not drawn) [NTRX-07, 3-benzyl-3-methyl-2,3-dihydrobenzofuran-6-carboxylic acid-piperidine amide]
Food effect on AUC (30 mg after standard high-fat meal vs fasted): AUC was comparable; also recorded: little or no change in AUC; also recorded: no effect on AUC | Vd/F (Table 9: Cohort A, 10 mg QD oral, Day 1): 1351 L and 1015 L and 629 L and 2041 L and 857 L and 1476 L | Vd/F (Table 10: Cohort A, 10 mg QD oral, Day 7): 338 L and 254 L and 157 L and 510 L and 214 L and 369 L | Vd/F (Table 11: Cohort B, 30 mg QD oral, Day 1): 493 L and 319 L and 144 L and 236 L and 196 L and 626 L and 425 L | Vd/F (Table 12: Cohort B, 30 mg QD oral, Day 7): 323 L and 127 L and 236 L and 161 L and 708 L and 792 L | Vd/F (Table 13: Cohort B Fed, 30 mg oral, fed state): 714 L and 248 L and 314 L and 758 L and 929 L and 449 L and 1478 L and 514 L | Vd/F (Table 14: Cohort C, 90 mg QD oral, Day 1): 200 L and 257 L and 267 L and 974 L and 126 L and 197 L | Vd/F (Table 15: Cohort C, 90 mg QD oral, Day 7): 539 L and 581 L and 789 L and 857 L and 249 L | Vd/F (Table 16: Cohort D (AD), 90 mg QD oral, Day 1): 385 L and 183 L and 131 L and 207 L (2×) and 153 L | Vd/F (Table 17: Cohort D (AD), 90 mg QD oral, Day 7): 360 L and 344 L and 366 L and 511 L and 407 L | Vd/F (Table 19 (interim): Cohort A, 40 mg SDD (10 mg NTRX-07) QD oral, Day 1): 1351 L and 1015 L and 629 L and 2041 L and 857 L and 1476 L | Vd/F (Table 20 (interim): Cohort A, 40 mg SDD (10 mg NTRX-07) QD oral, Day 7): 1351 L and 1015 L and 629 L and 2041 L and 857 L and 1476 L | Vd/F (Table 24 (interim): Cohort B, 120 mg SDD (30 mg NTRX-07) QD oral, Day 1): 1974 L and 1278 L and 574 L and 945 L and 784 L and 2505 L and 1700 L | Vd/F (Table 25 (interim): Cohort B, 120 mg SDD (30 mg NTRX-07) QD oral, Day 7): 1292 L and 508 L and 945 L and 645 L and 2830 L and 3166 L | Vd/F (Table 29 (interim): Cohort C, 360 mg SDD (90 mg NTRX-07) QD oral, Day 1): 802 L and 1029 L and 1068 L and 3896 L and 505 L and 519 L | Vd/F (Table 30 (interim): Cohort C, 360 mg SDD (90 mg NTRX-07) QD oral, Day 7): 2156 L and 1565 L and 2323 L and 3158 L and 3429 L and 997 L | Vd/F (Table 34 (interim): Cohort D (AD), 360 mg SDD (90 mg NTRX-07) QD oral, Day 1): 1538 L and 733 L and 526 L and 829 L and 613 L | Vd/F (Table 35 (interim): Cohort D (AD), 360 mg SDD (90 mg NTRX-07) QD oral, Day 7): 1440 L and 1374 L and 1463 L and 2045 L and 1629 L
